Measurements published in paper PMC9844227.
Results are given in words; binding and its absence hold for the method and conditions named. Binding seen in cells or lysates may run through a third protein. Some binding calls cover weakened binding; strength is not graded here. Sequences can lack the tags named with a protein.

T1: FLAG-malin (mouse (endogenous in C57BL/6J knock-in mice)) (UniProt Q8BR37)
T1 sequence: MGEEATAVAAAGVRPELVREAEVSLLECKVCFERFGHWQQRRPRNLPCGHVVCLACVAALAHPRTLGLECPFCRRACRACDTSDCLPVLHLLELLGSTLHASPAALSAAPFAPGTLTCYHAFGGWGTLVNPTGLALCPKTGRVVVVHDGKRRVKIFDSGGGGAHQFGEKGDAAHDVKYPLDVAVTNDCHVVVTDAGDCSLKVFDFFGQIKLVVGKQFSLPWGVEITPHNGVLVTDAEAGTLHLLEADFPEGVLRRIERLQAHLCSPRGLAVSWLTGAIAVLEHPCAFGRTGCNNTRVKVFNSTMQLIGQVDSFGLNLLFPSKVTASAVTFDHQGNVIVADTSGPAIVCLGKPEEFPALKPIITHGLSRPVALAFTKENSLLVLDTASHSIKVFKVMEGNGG

T2: laforin (mouse (endogenous in mouse tissues)) (UniProt Q9WUA5)
T2 sequence: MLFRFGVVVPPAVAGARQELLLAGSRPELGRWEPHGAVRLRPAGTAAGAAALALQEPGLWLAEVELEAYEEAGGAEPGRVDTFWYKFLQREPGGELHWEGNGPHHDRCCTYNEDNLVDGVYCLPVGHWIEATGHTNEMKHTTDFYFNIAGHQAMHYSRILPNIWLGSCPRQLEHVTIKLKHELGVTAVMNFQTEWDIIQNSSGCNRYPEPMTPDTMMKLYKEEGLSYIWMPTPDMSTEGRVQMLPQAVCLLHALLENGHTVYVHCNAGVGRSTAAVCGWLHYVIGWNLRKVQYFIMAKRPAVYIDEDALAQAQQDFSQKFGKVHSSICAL


Legend:
[1] = target: T1, FLAG-malin (mouse (endogenous in C57BL/6J knock-in mice)); assay: co-IP; IP with anti-FLAG antibody and protein G agarose from the glycogen-enriched high-speed pellet (HSP, 100,000 g) of skeletal muscle of Malin^FLAG/FLAG mice; 700 ug protein; blot with anti-laforin
[2] = target: T1, FLAG-malin (mouse (endogenous in C57BL/6J knock-in mice)); assay: co-IP; IP with anti-FLAG antibody and protein G agarose from low-speed supernatant (LSS, 700 ug protein) of skeletal muscle, heart, liver and brain of Malin^FLAG/FLAG mice; overnight at 4 C; washes in PBST; blot with anti-laforin
[3] = target: T2, laforin (mouse (endogenous in mouse tissues)); assay: co-IP; reverse co-IP: IP with anti-laforin antibody and protein G agarose from LSS (700 ug protein) of skeletal muscle, heart, liver and brain of Malin^FLAG/FLAG mice; overnight at 4 C; washes in PBST; blot with anti-FLAG

binding [1]	binding [2]	binding [3]	Binder
binds	binds		laforin (protein, UniProt Q9WUA5 1-330) MLFRFGVVVPPAVAGARQELLLAGSRPELGRWEPHGAVRLRPAGTAAGAAALALQEPGLWLAEVELEAYEEAGGAEPGRVDTFWYKFLQREPGGELHWEGNGPHHDRCCTYNEDNLVDGVYCLPVGHWIEATGHTNEMKHTTDFYFNIAGHQAMHYSRILPNIWLGSCPRQLEHVTIKLKHELGVTAVMNFQTEWDIIQNSSGCNRYPEPMTPDTMMKLYKEEGLSYIWMPTPDMSTEGRVQMLPQAVCLLHALLENGHTVYVHCNAGVGRSTAAVCGWLHYVIGWNLRKVQYFIMAKRPAVYIDEDALAQAQQDFSQKFGKVHSSICAL
		binds	FLAG-malin (protein, UniProt Q8BR37 1-401) MGEEATAVAAAGVRPELVREAEVSLLECKVCFERFGHWQQRRPRNLPCGHVVCLACVAALAHPRTLGLECPFCRRACRACDTSDCLPVLHLLELLGSTLHASPAALSAAPFAPGTLTCYHAFGGWGTLVNPTGLALCPKTGRVVVVHDGKRRVKIFDSGGGGAHQFGEKGDAAHDVKYPLDVAVTNDCHVVVTDAGDCSLKVFDFFGQIKLVVGKQFSLPWGVEITPHNGVLVTDAEAGTLHLLEADFPEGVLRRIERLQAHLCSPRGLAVSWLTGAIAVLEHPCAFGRTGCNNTRVKVFNSTMQLIGQVDSFGLNLLFPSKVTASAVTFDHQGNVIVADTSGPAIVCLGKPEEFPALKPIITHGLSRPVALAFTKENSLLVLDTASHSIKVFKVMEGNGG
